Compound in this assay: CC1Cc2ccccc2N1C(=O)C1CCCN(C1)C(=O)CCl (mixture of isomers) [TRIM25 ligand 11 (diastereomer mixture)]
The assay can be described thus: probe-labelled cysteine peptide fold change vs DMSO (competition) (log2 fold change); higher = less target engagement (more negative = stronger competition). The settings on record: THP-1, incubation time: 4 h.

Chains of the proteins cited; added tags and fusions are not shown. Lines headed by an entry give the natural chain unless they say otherwise; changes in a name come on top.
UniProt Q8IXQ5, whole entry, looked up: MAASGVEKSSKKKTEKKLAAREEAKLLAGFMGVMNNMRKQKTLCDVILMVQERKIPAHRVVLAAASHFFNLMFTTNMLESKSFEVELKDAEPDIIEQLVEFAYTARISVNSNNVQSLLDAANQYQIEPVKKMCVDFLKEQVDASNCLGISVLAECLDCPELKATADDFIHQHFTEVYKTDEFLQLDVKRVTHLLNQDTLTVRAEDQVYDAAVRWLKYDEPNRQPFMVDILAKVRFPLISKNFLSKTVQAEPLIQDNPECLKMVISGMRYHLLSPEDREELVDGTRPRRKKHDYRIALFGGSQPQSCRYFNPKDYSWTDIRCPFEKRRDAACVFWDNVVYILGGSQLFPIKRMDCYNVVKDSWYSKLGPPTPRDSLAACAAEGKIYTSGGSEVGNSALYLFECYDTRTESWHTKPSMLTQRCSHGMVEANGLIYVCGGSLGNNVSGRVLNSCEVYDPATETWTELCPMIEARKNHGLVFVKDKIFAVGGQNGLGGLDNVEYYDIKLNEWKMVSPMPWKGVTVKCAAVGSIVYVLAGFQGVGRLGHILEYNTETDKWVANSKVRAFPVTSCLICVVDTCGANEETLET
UniProt Q9P2J5: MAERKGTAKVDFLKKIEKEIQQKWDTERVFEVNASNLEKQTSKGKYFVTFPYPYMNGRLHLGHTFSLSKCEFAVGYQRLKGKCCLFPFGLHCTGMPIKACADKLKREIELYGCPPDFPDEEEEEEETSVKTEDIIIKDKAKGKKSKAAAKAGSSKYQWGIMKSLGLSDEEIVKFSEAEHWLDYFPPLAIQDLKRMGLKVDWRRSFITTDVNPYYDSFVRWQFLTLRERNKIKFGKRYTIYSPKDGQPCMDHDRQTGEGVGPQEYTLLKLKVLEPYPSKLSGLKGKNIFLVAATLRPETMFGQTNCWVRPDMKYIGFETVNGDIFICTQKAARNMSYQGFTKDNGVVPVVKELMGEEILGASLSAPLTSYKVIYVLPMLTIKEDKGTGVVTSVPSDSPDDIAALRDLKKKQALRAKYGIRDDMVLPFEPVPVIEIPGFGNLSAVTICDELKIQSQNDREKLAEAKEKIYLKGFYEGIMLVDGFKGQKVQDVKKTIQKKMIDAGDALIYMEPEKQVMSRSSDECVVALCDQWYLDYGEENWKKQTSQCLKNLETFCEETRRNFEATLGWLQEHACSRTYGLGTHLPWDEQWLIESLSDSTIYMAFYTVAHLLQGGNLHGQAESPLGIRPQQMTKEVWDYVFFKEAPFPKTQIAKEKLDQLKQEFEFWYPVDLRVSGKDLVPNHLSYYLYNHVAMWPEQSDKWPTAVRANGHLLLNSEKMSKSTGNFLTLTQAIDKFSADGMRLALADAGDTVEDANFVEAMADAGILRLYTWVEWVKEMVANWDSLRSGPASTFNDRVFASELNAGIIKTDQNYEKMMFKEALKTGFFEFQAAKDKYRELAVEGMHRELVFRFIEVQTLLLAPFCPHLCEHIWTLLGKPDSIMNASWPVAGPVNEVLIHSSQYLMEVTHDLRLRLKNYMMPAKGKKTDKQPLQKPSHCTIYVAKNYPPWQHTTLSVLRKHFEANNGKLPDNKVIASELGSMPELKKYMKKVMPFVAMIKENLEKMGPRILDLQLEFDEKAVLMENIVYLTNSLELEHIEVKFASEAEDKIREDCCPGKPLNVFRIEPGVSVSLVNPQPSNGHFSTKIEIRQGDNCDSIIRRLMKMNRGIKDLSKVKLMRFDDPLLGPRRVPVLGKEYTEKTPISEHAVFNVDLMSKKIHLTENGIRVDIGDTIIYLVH
UniProt Q14807: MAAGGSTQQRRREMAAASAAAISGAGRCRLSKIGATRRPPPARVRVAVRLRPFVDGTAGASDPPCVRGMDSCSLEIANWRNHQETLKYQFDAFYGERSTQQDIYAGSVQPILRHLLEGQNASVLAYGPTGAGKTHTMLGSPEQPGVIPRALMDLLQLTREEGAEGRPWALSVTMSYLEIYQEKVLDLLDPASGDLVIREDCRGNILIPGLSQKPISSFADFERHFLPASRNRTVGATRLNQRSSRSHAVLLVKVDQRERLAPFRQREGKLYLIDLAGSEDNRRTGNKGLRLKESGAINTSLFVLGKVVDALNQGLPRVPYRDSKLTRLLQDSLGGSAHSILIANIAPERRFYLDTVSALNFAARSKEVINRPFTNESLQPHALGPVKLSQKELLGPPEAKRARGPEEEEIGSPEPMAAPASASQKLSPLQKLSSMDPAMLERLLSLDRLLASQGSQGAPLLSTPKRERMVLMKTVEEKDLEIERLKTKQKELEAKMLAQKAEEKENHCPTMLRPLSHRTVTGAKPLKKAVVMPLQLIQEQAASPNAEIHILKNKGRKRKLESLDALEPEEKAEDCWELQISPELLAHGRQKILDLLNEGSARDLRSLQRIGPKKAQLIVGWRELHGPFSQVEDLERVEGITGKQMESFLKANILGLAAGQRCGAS
UniProt Q96Q89: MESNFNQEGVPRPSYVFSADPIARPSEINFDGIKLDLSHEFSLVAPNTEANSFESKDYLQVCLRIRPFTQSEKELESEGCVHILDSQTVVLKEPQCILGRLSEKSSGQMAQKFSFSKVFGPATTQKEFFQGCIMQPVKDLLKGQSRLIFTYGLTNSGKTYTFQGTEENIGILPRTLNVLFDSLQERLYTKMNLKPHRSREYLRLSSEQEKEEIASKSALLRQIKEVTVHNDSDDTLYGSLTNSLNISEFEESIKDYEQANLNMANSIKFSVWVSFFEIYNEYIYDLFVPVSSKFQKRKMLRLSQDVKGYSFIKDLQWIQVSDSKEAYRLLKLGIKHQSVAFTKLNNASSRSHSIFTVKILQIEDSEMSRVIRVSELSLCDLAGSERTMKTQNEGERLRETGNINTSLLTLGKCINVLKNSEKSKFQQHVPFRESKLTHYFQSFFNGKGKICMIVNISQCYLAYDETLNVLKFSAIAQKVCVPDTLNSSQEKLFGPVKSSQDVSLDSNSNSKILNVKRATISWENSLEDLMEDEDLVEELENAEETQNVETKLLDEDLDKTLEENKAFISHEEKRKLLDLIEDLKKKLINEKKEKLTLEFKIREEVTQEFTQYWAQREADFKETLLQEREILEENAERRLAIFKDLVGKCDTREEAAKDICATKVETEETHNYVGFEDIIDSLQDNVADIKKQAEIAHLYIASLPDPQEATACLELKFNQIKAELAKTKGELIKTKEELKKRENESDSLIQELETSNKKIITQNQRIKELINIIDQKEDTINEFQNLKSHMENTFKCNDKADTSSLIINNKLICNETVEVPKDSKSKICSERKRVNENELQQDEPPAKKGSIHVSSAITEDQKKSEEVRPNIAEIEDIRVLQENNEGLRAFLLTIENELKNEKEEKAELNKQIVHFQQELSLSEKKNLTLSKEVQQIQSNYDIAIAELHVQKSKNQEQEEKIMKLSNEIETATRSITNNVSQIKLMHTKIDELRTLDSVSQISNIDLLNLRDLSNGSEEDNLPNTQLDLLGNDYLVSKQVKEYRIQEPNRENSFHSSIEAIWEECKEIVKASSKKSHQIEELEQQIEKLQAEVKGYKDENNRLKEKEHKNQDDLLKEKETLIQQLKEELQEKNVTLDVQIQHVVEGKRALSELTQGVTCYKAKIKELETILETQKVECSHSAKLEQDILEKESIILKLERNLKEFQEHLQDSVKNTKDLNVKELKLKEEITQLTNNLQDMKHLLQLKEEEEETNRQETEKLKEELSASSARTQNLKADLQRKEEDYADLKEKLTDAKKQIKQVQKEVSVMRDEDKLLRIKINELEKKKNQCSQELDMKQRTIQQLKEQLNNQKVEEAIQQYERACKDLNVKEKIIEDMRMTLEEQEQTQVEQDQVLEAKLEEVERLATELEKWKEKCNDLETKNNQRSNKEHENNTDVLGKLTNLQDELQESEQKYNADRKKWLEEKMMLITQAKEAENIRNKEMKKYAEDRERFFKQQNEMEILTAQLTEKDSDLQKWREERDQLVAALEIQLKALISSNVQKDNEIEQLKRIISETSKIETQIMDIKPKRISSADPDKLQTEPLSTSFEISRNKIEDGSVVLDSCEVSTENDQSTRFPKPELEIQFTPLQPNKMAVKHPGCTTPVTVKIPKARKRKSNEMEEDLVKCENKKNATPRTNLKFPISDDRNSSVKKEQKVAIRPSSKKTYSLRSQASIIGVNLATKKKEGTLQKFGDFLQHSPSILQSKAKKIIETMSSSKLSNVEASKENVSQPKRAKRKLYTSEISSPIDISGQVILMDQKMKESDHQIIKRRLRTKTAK
UniProt P50748: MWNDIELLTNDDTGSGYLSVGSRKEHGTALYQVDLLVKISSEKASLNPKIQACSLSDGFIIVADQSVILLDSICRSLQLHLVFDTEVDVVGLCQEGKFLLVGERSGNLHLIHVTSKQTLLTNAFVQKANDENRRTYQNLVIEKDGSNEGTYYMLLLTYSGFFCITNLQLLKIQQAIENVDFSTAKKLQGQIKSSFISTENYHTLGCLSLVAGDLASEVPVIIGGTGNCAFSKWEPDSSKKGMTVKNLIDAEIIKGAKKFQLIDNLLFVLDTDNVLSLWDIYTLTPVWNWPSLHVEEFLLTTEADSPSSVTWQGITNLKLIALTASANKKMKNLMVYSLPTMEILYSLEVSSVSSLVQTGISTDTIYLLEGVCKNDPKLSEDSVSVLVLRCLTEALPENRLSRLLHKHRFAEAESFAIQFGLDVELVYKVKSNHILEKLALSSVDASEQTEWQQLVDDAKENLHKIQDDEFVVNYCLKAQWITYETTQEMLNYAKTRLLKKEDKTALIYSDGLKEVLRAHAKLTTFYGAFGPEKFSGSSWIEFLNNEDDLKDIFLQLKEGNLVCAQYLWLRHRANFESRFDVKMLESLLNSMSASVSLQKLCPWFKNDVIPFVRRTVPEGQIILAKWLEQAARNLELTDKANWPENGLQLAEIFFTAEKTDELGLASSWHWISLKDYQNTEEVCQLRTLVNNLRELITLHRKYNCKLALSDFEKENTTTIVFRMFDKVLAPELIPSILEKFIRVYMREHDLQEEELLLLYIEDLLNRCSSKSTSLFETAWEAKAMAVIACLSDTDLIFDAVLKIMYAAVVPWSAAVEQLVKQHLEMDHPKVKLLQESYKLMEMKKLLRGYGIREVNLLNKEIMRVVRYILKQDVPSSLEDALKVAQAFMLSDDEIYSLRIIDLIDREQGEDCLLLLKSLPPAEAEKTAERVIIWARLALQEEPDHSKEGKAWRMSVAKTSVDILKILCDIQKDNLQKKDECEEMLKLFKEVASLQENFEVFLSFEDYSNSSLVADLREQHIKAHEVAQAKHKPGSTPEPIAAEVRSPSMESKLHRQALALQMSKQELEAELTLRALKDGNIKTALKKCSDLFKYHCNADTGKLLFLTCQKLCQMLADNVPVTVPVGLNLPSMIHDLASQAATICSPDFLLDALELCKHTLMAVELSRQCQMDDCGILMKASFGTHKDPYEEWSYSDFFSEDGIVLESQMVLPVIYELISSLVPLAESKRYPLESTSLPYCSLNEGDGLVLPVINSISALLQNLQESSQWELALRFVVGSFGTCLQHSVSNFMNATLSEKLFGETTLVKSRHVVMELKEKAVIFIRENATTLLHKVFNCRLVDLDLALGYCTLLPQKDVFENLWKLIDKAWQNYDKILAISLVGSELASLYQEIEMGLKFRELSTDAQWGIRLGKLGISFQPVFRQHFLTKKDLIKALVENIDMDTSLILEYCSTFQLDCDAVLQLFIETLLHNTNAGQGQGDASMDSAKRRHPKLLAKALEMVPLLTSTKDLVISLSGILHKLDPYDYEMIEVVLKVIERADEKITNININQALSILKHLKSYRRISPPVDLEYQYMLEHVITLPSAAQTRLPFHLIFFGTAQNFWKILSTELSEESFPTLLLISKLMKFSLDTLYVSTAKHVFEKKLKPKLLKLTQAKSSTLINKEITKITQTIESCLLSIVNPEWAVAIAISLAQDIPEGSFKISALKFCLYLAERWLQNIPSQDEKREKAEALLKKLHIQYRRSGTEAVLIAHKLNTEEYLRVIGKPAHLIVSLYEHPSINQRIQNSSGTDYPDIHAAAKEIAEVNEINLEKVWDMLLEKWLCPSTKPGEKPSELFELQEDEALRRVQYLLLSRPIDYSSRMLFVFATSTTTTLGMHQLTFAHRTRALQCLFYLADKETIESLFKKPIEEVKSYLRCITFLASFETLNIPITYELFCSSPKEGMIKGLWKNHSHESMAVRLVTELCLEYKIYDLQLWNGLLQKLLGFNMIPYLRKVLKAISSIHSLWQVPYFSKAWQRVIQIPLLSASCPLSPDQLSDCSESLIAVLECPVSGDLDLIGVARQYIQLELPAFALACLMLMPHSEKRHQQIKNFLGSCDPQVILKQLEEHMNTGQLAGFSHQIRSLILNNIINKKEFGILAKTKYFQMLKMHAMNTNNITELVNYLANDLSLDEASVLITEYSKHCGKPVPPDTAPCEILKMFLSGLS

Here are results for 16 targets from the supplement of paper PMC12067093, “Discovery and optimisation of a covalent ligand for TRIM25 and its application to targeted protein ubiquitination” (Chemical Science, 2025).

The list shows a part of the results.
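Note: competitive chemoproteomic profiling in live THP-1 cells with an iodoacetamide desthiobiotin (IA-DTB) probe, comparing probe-labelled peptide intensities in compound-treated cells against DMSO-treated controls.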

Take “KLHL7_Q8IXQ5_378_DSLAACAAEGK (UniProt Q8IXQ5)”: the “probe-labelled cysteine peptide fold change” value (10 µM) was -0.106 and the “probe-labelled cysteine peptide fold change” value (50 µM) was -0.0258.
The corresponding values for “LCP1_P13796_42_AACLPLPGYR (UniProt P13796)” are -0.0884 and -0.216.
The corresponding values for “KPNB1_Q14974_392_YRDAAVMAFGCILEGPEPSQLK (UniProt Q14974)” are -0.231 and -0.049.
For the target “KMT2B_Q9UMN6_1749_IDSLGTLSDLSDCEGR (UniProt Q9UMN6)”, the “probe-labelled cysteine peptide fold change” value runs as follows: (10 µM) -0.00444; (50 µM) 0.206.
“KTI12_Q96EK9_103_TPLCLVYCVRPGGPIAGPQVAGANENPGR (UniProt Q96EK9)”: the “probe-labelled cysteine peptide fold change” value reads like this: (10 µM) -0.283; (50 µM) -0.123.
On to “KIF2A_O00139_159_KSNCVK (UniProt O00139)”, for which the “probe-labelled cysteine peptide fold change” value was -0.178 (10 µM) and -0.462 (50 µM).
With “LARS_Q9P2J5_1093_QGDNCDSIIR (UniProt Q9P2J5)”, the “probe-labelled cysteine peptide fold change” value (10 µM) was 0.163 and the “probe-labelled cysteine peptide fold change” value (50 µM) was 0.169.
“LASP1_Q14847_35_ACFHCETCK (UniProt Q14847)”: the “probe-labelled cysteine peptide fold change” value by setting is: (10 µM) -0.0242; (50 µM) 0.0173.
Regarding “KIF22_Q14807_508_ENHCPTMLRPLSHR (UniProt Q14807)”, the “probe-labelled cysteine peptide fold change” value is, setting by setting: (10 µM) 0.0531; (50 µM) -0.158.
Take “LAP3_P28838_129_AAVAAGCR (UniProt P28838)”: the “probe-labelled cysteine peptide fold change” value is -0.0533 (10 µM) and 0.0414 (50 µM).
Consider “KLC1_Q07866_349_QLNNLALLCQNQGK (UniProt Q07866)”, for which the “probe-labelled cysteine peptide fold change” value is, setting by setting: (10 µM) -0.073; (50 µM) 0.0754.
“LARS_Q9P2J5_936_PSHCTIYVAK (UniProt Q9P2J5)”: the “probe-labelled cysteine peptide fold change” value (10 µM) came to 0.103 and the “probe-labelled cysteine peptide fold change” value (50 µM) stood at 0.111.
As for “KIF20B_Q96Q89-3_672_VETEEATACLELK (UniProt Q96Q89)”, the “probe-labelled cysteine peptide fold change” value reads like this: (10 µM) 0.0816; (50 µM) -0.0295.
In the case of “KIF5B_P33176_302_TTIVICCSPSSYNESETK (UniProt P33176)”, the “probe-labelled cysteine peptide fold change” value by setting is: (10 µM) -0.00449; (50 µM) 0.0579.
For the target “KNTC1_P50748_390_CLTEALPENR (UniProt P50748)”, the “probe-labelled cysteine peptide fold change” value was -0.0246 (10 µM) and -0.0768 (50 µM).
Turning to “KIF20A_O95235_87_QEDQGCVR (UniProt O95235)”, the “probe-labelled cysteine peptide fold change” value (10 µM) stood at 0.109 and the “probe-labelled cysteine peptide fold change” value (50 µM) came to 0.0259.
